In patent US20250043285A1, “Mammalian ATG8 Proteins and ATG9A Direct Sealing of Autophagosomal Membranes” (UNM Rainforest Innovations, priority 2023, published 2025):
These are yes or no findings as the source states them, for the method shown. In cells and extracts the contact can be indirect. Some results given as binding are weak or reduced against the parent protein; the word gives no strength.

Chains of the proteins cited; added tags and fusions are not shown. Lines headed by an entry give the natural chain unless they say otherwise; changes in a name come on top. Residues count along the entry.
UniProt O95166: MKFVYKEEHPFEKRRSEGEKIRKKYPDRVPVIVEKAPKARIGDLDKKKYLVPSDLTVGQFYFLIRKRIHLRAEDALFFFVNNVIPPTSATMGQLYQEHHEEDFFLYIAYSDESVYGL
GFP-GABARAP: residues 1-116 of O95166
UniProt Q8NEZ2: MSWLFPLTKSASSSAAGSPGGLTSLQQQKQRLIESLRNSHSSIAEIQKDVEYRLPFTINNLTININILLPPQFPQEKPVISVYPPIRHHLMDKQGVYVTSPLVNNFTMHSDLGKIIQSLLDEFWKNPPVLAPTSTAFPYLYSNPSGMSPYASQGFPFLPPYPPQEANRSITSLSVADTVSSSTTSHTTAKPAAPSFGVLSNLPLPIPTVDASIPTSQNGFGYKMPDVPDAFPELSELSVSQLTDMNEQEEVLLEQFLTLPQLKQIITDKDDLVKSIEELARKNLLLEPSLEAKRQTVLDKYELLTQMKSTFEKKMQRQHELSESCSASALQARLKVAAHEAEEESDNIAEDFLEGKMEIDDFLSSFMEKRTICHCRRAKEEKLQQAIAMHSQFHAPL
UniProt P60520: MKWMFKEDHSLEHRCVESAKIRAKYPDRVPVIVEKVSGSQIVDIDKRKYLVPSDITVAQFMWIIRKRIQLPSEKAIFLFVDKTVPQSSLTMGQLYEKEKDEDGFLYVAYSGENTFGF
UniProt Q9BXW4: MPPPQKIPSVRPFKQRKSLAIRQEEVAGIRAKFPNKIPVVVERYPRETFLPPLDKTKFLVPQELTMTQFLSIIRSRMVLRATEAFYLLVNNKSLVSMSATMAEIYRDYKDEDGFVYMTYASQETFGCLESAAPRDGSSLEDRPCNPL

Columns and labels:
[1] = target: GFP-GABARAP (UniProt O95166); assay: Co-IP
[2] = target: Myc-VPS37A (in vitro translated, [35S]-radiolabeled, full length) (UniProt Q8NEZ2); assay: GST pulldown of in vitro translated [35S] Myc-VPS37A (FIG. 1A)
[3] = target: Myc-VPS37A (in vitro translated, [35S]-radiolabeled, full length) (UniProt Q8NEZ2); assay: discussion of the pulldown and Co-IP results; assay not given

| binding [1] | binding [2] | binding [3] | Substance |
| --- | --- | --- | --- |
| binds |  |  | FLAG-VPS37A^Nter-EGFP (VPS37A residues 1-22 fused to the N-terminus of GFP) (from UniProt Q8NEZ2 1-22) |
|  | binds |  | GST-GABARAP-L2 (from UniProt P60520 1-117) |
|  | binds | binds | GST-GABARAP (from UniProt O95166 1-117) |
|  | binds |  | GST-LC3C (from UniProt Q9BXW4 1-147) |
